PubChem BioAssay AID493246 | Drosophila RNAi Screening Center – 2011
The deposit covers about 21,000 reagents; below is an unselected part of those that have a named target and a result. In the full data, 429 (2%) got an active call. 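Values are raw and not normalised between plates; calls rest on per-plate z-scores that were not deposited.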 Unmarked entries are inactive. Names joined by + are all predicted targets of the reagent. Not given: the amount of reagent, the time to read-out.

Test: 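Genes fly cells need to grow and stay alive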 (primary screen)
System: Drosophila Kc and S2R+ cells
Reagent: long dsRNA against Drosophila genes
Read-out: 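Cell number per well after knock-down, printed as raw plate values; calls were based on per-plate z-scores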
Reading the numbers: Kc cell number and S2R+ cell number: higher = more cells remaining
Call rule: 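Counted as a hit if cell number falls by a z-score of at least 3 within its plate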

Target gene	amplicon	Kc cell number, rep 1	Kc cell number, rep 2	S2R+ cell number, rep 1	S2R+ cell number, rep 2
CG14929 + CG4970 + CG14930	DRSC02412	1.68e6	1.73e6	1.35e6	1.51e6
CG15306	DRSC17993	1.58e6	1.55e6	1.01e6	1.10e6
CG15306	DRSC18240	1.37e6	1.46e6	1.09e6	1.21e6
AP-1gamma (Adaptor Protein complex 1, gamma subunit)	DRSC18433	1.58e6	1.58e6	9.04e5	1.03e6
CG14965	DRSC08424	1.35e6	1.50e6	1.14e6	1.11e6
CG13148	DRSC06275	1.49e6	1.51e6	1.09e6	1.25e6
CG34171	DRSC01637	1.58e6	1.57e6	1.00e6	1.21e6
CG42633	DRSC16061	1.49e6	1.46e6	1.28e6	1.33e6
stx (stuxnet)	DRSC18442	7.73e5 (active)	8.89e5	6.23e5	7.26e5
stx (stuxnet)	DRSC18443	1.53e6	1.53e6	8.95e5	1.02e6
CG42591	DRSC08905	1.43e6	1.42e6	1.13e6	1.25e6
Elp1 (Elongator complex protein 1)	DRSC14250	1.54e6	1.62e6	1.18e6	1.23e6
Ets21C (Ets at 21C)	DRSC00751	1.55e6	1.62e6	1.12e6	1.22e6
BomBc1 (Bomanin Bicipital 1)	DRSC06501	1.51e6	1.57e6	1.16e6	1.24e6
CG3407	DRSC00603	1.32e6	1.35e6	9.07e5	9.20e5
Prosalpha3T (Proteasome alpha3 subunit, Testis-specific)	DRSC15226	1.59e6	1.55e6	9.48e5	1.14e6
rig (rigor mortis)	DRSC06053	1.23e6	1.36e6	1.16e6	1.21e6
rig (rigor mortis)	DRSC06400	1.61e6	1.35e6	9.63e5	1.26e6
Nup35 (Nucleoporin 35kDa)	DRSC19999	1.52e6	1.53e6	1.06e6	1.22e6
jub (Ajuba LIM protein)	DRSC19367	4.28e5		6.31e5	
CG14693	DRSC14916	1.62e6	1.70e6	1.43e6	1.55e6
Coq6 (Coenzyme Q6)	DRSC03040	1.25e6	1.28e6	4.75e5	8.28e5
CG11374	DRSC00306	1.75e6	1.78e6	1.17e6	1.25e6
nonA (no on or off transient A)	DRSC20357	1.59e6	1.54e6	9.40e5	1.07e6
nito (spenito)	DRSC05943	1.46e6	1.54e6	9.90e5	1.13e6
CG14424	DRSC18472	1.47e6	1.42e6	1.02e6	1.15e6
CG9393	DRSC16486	1.60e6	1.66e6	1.34e6	1.48e6
retm (real-time)	DRSC03252	1.31e6	1.35e6	7.71e5	9.40e5
aspr (asperous)	DRSC20689	1.50e6	1.50e6	1.05e6	1.15e6
aspr (asperous)	DRSC20690	1.51e6	1.48e6	1.06e6	1.15e6
MICU3 (Mitochondrial calcium uptake 3)	DRSC13381	1.38e6	1.42e6	1.05e6	1.13e6
MICU3 (Mitochondrial calcium uptake 3)	DRSC15613	1.57e6	1.64e6	1.23e6	1.23e6
CG1701	DRSC06641	1.70e6	1.71e6	1.41e6	1.59e6
PolD1 (DNA polymerase delta subunit 1)	DRSC11138	1.39e6	1.40e6	1.25e6	1.32e6
Bicra	DRSC14417	1.37e6	1.43e6	1.04e6	1.08e6
CG13594	DRSC04229	1.58e6	1.69e6	1.39e6	1.49e6
Paics (PAICS bifunctional enzyme)	DRSC20305	5.73e5		8.42e5	
neb (nebbish)	DRSC03577	1.29e6	1.47e6	1.20e6	9.53e5
CG13272	DRSC02249	1.49e6	1.54e6	1.22e6	1.29e6
CG5262	DRSC11773	1.44e6	1.46e6	1.25e6	1.33e6
Nipsnap	DRSC20169	5.94e5		9.08e5	
CG6984	DRSC07013	1.11e6 (active)	1.18e6	6.24e5	5.49e5
Scgdelta (Sarcoglycan delta)	DRSC18544	1.62e6	1.62e6	1.03e6	1.17e6
Ns1 (Nucleostemin 1)	DRSC15529	1.25e6	1.25e6	8.34e5	9.32e5
GstE6 (Glutathione S transferase E6)	DRSC06676	1.56e6	1.56e6	1.10e6	1.26e6
G6P (Glucose-6-Phosphatase)	DRSC00414	1.56e6	1.60e6	1.05e6	1.18e6
CG30480	DRSC06736	1.57e6	1.66e6	1.41e6	1.47e6
Srg3 (Sting-regulated gene 3)	DRSC08984	1.91e6	1.96e6	1.29e6	1.48e6
Srg3 (Sting-regulated gene 3)	DRSC10178	1.54e6	1.81e6	1.22e6	1.26e6
stnB + stnA	DRSC21112	1.48e6	1.53e6	1.03e6	1.17e6
stnB + stnA	DRSC21113	1.40e6	1.46e6	1.06e6	1.14e6
PGRP-LE (Peptidoglycan recognition protein LE)	DRSC20137	6.12e5		8.98e5	
VhaM9.7-a (Vacuolar H[+] ATPase M9.7 subunit a)	DRSC08289	1.55e6	1.53e6	1.09e6	1.21e6
NfI (Nuclear factor I)	DRSC17158	1.78e6	1.78e6	1.02e6	1.25e6
CG1529	DRSC20515	1.30e6	1.24e6	9.73e5	1.13e6
Obp69a (Odorant-binding protein 69a)	DRSC11247	1.68e6	1.69e6	1.23e6	1.32e6
CG2694	DRSC18470	5.38e5		8.79e5	
Pcif1 (Phosphorylated CTD-interacting factor 1)	DRSC11655	1.43e6	1.50e6	1.28e6	1.30e6
CG5180	DRSC15731	1.62e6	1.59e6	1.15e6	1.16e6
BckdhA (Branched chain keto acid dehydrogenase E1 subunit alpha)	DRSC16395	1.66e6	1.66e6	1.17e6	1.28e6
SIFa (SIFamide)	DRSC04480	1.58e6	1.61e6	1.26e6	1.52e6
CG13630	DRSC14631	1.66e6	1.66e6	1.29e6	1.34e6
ImpL2 (Ecdysone-inducible gene L2)	DRSC08666	1.34e6	1.38e6	1.29e6	1.25e6
CheB93a (Chemosensory protein B 93a)	DRSC15044	1.35e6	1.40e6	1.02e6	1.12e6
LManIV (Lysosomal alpha-mannosidase IV)	DRSC03222	1.65e6	1.58e6	1.17e6	1.28e6
CG18449	DRSC06754	1.45e6	1.60e6	1.28e6	1.41e6
CG32176	DRSC10057	1.56e6	1.57e6	1.19e6	1.33e6
CG32176	DRSC10058	1.37e6	1.48e6	1.22e6	1.34e6
cg (combgap)	DRSC07650	5.28e5 (active)	5.71e5	4.15e5	5.35e5
Boh2 (Buddy of Hmr 2)	DRSC02777	1.57e6	1.63e6	1.26e6	1.44e6
CG34280	DRSC13229	1.63e6	1.67e6	1.03e6	1.21e6
mthl7 (methuselah-like 7)	DRSC10852	1.68e6	1.50e6	1.26e6	1.23e6
RhoBTB (Rho-related BTB domain containing)	DRSC11877	1.41e6	1.46e6	1.24e6	1.31e6
HIP + HIP-R	DRSC18245	5.61e5		9.46e5	
CG32750	DRSC18848	1.52e6	1.59e6	1.07e6	1.23e6

9 neighbouring reagents from above:
Target gene	amplicon	Kc cell number, rep 1	Kc cell number, rep 2	S2R+ cell number, rep 1	S2R+ cell number, rep 2
CG5262	DRSC11773	1.44e6	1.46e6	1.25e6	1.33e6
Nipsnap	DRSC20169	5.94e5		9.08e5	
CG6984	DRSC07013	1.11e6 (active)	1.18e6	6.24e5	5.49e5
Scgdelta (Sarcoglycan delta)	DRSC18544	1.62e6	1.62e6	1.03e6	1.17e6
Ns1 (Nucleostemin 1)	DRSC15529	1.25e6	1.25e6	8.34e5	9.32e5
GstE6 (Glutathione S transferase E6)	DRSC06676	1.56e6	1.56e6	1.10e6	1.26e6
G6P (Glucose-6-Phosphatase)	DRSC00414	1.56e6	1.60e6	1.05e6	1.18e6
CG30480	DRSC06736	1.57e6	1.66e6	1.41e6	1.47e6
Srg3 (Sting-regulated gene 3)	DRSC08984	1.91e6	1.96e6	1.29e6	1.48e6
